From patent US11833211B2, “Methods of suppression and treatment of disease comprising administering bicycle peptide ligands specific for EphA2” (BicycleTx Limited, priority 2017, dated 2023)
At least one structure is not confirmed: it was looked up by name or label, or the drawing left a doubt.

By UniProt entry, the sequences of proteins in these tests, tags left out. Residues count along the entry.
UniProt P29317, 24-537 limits assumed: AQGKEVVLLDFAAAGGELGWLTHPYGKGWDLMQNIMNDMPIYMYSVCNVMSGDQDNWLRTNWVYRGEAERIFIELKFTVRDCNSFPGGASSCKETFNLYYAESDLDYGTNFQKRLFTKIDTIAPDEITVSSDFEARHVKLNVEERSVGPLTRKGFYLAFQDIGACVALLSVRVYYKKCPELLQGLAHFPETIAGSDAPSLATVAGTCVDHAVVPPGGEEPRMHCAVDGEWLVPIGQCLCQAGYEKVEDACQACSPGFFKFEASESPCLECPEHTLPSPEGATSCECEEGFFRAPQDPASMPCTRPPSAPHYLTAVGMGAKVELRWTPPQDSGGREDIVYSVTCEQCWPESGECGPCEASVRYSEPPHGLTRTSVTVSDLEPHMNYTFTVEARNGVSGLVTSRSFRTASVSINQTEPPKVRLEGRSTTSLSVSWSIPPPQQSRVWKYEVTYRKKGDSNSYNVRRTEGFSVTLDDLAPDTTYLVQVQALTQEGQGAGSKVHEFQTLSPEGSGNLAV

Key:
human EphA2 [1] = biological target: T1, human EphA2 (Homo sapiens, UniProt P29317); assay: Fluorescence polarisation competition binding assay (Study 1); design: EphA2 (Ecto); polyHis (C); purchased R&D systems (or In-house); conditions: read-out: Ki, nM, Human EphA2, Fluorescent Peptide, Reference Compound C; Table 4, BDC, TATA scaffold
human EphA2 [2] = biological target: T1, human EphA2; assay: Fluorescence polarisation competition binding, alternative protocol (Study 2); conditions: read-out: Human Ki

Work on `COc1cc2cc(c1Cl)N(C)C(=O)C[C@@H](OC(=O)[C@@H](C)N(C)C(=O)CCSSC(C)CCC(=O)NCCC(=O)N(C)CC(=O)N(C)CC(=O)N(C)CC(=O)N(C)CC(=O)N(C)CC(=O)N(C)CC(=O)N(C)CC(=O)N(C)CC(=O)N(C)CC(=O)N(C)CC(=O)N[C@@H](C)C(=O)N[C@@H](CCCCNC(=N)N)C(=O)N[C@@H](CC(=O)O)C(=O)N[C@H]1CSCCC(=O)N3CN4CN(C3)C(=O)CCSC[C@H](NC(=O)[C@H](CC(C)C)NC(=O)[C@@H]3CCCN3C(=O)[C@H](CC(N)=O)NC(=O)[C@H](C(C)C)NC(=O)[C@H](CC(C)C)NC(=O)[C@@H]3C[C@@H](O)CN3C1=O)C(=O)N[C@@H](CC(C)C)C(=O)N[C@@H](Cc1c[nH]cn1)C(=O)N1CCC[C@H]1C(=O)N[C@H](CC(=O)O)C(=O)N[C@@H](Cc1c[nH]c3ccccc13)C(=O)N[C@@H](CCCCNC(=N)N)C(=O)N[C@H](C(N)=O)CSCCC4=O)[C@@]1(C)O[C@@H]1[C@@H](C)[C@H]1C[C@](O)(NC(=O)O1)C(OC)/C=C/C=C(\C)C2` (some centres unmarked) [BCY6028] yielded a Ki (human EphA2 [1]) of 13 nM and a Ki (human EphA2 [2]) of 13 nM.
